Results are given in words; binding and its absence hold for the method and conditions named. In cells and extracts the contact can be indirect. Some entries that bind do so weakly or less than the wild type. For some of these results: Tags and fused reporters may be left off the sequences shown.
Legend:
[1] = target: T1, PPARα-HA (Peroxisome Proliferator Activated Receptor alpha, HA-tagged) (UniProt P23204); assay: proximity ligation; Duolink in situ on fixed, permeabilised HEK293T cells transfected with PPARα-HA with or without Vps15-Flag; primary antibodies to Hdac3 and to the HA tag
T1 sequence: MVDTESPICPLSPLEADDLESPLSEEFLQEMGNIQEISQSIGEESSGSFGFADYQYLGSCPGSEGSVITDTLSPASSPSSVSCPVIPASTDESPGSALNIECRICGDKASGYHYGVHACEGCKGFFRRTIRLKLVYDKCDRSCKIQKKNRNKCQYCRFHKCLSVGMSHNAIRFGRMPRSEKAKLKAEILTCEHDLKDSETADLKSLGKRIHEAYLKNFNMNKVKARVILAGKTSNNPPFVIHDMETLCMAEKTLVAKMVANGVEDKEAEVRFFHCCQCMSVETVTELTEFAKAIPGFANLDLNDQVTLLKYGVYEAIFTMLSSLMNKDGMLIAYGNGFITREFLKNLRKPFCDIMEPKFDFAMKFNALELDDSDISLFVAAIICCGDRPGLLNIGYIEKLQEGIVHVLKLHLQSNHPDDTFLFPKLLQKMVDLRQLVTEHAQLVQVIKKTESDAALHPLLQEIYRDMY

Sequences of proteins named here, by UniProt entry; tags and fusion partners are left off.
UniProt O15379: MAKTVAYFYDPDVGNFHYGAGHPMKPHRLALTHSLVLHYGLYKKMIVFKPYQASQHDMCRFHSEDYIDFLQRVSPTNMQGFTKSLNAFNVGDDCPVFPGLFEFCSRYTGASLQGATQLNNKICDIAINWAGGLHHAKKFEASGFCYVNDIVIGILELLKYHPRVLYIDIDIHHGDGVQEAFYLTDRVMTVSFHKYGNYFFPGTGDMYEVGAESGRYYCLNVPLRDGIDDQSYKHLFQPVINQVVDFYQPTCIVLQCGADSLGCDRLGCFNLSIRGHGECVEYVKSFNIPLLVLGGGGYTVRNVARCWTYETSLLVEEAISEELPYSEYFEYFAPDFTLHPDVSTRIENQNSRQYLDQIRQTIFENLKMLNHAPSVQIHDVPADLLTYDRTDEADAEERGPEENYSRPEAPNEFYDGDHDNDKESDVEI
UniProt O75376: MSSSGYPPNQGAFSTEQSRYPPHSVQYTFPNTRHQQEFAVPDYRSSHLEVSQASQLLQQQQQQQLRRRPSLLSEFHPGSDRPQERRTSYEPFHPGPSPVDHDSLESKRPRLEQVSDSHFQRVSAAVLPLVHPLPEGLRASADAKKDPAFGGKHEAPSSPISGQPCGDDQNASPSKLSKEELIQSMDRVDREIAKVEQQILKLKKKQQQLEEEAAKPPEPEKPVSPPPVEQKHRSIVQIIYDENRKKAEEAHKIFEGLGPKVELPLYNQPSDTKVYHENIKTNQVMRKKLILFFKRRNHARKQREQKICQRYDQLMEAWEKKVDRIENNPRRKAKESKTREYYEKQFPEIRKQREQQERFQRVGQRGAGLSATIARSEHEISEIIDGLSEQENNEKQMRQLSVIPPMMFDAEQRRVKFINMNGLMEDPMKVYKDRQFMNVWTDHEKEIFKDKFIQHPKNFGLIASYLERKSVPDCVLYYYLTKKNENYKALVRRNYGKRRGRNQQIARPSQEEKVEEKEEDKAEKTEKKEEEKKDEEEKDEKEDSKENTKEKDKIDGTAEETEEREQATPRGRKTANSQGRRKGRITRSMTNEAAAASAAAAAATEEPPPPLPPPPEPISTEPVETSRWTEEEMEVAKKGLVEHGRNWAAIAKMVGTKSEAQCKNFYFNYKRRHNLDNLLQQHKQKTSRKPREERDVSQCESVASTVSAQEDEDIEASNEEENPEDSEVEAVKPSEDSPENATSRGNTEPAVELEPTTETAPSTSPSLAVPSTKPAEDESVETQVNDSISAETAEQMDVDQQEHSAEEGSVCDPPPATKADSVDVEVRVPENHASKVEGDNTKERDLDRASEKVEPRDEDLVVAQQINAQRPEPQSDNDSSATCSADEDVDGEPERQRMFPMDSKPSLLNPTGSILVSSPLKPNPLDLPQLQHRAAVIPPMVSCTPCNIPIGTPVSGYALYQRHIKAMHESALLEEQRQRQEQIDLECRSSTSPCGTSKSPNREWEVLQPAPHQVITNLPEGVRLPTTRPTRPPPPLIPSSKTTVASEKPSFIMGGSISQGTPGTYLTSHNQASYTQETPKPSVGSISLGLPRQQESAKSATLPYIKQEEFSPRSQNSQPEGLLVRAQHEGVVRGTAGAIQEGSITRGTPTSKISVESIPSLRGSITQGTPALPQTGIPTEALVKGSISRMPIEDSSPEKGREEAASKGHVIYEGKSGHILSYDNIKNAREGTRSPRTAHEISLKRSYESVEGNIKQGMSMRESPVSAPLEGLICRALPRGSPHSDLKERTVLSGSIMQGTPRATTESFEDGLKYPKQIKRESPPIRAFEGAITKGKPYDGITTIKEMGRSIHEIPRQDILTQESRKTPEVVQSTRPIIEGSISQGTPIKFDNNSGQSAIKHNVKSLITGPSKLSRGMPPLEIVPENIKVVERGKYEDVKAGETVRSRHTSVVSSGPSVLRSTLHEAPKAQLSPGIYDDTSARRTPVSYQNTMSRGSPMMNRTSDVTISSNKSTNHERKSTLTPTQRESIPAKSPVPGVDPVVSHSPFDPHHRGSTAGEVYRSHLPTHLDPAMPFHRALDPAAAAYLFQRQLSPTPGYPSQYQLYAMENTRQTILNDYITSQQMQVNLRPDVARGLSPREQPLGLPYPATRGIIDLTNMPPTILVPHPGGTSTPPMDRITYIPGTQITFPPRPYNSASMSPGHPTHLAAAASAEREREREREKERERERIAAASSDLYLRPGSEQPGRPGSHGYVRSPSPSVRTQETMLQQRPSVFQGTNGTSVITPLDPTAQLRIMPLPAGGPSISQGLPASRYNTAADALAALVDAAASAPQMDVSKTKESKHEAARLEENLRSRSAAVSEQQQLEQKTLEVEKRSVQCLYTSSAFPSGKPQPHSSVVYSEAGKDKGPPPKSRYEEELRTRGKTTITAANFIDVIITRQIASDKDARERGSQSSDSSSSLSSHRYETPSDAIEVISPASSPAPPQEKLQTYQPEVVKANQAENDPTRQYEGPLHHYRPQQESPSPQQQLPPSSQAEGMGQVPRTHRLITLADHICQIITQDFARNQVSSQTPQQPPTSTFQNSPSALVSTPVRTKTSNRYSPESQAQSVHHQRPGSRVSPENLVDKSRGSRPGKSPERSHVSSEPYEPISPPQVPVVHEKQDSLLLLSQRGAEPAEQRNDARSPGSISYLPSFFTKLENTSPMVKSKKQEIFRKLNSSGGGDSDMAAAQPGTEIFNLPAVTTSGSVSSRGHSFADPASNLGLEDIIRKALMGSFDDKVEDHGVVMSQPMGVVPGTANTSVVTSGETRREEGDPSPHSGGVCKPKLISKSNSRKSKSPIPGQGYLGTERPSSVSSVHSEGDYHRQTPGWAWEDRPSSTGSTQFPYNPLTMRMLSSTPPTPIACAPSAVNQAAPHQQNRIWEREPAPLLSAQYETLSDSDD

[2] = target: T1, PPARα-HA (Peroxisome Proliferator Activated Receptor alpha, HA-tagged); assay: co-IP; anti-HA antibody and Protein G Sepharose on 500 µg cleared extract of HEK293T cells transfected with PPARα-HA, with empty vector or Vps15-Flag; 1% NP-40 lysis buffer, +4 °C, four washes; endogenous Hdac3 immunoblotted
[3] = target: GFP-tagged gamma-aminobutyric acid receptor-associated protein (GABARAP) (UniProt O95166); assay: co-IP; GFP-Trap agarose on lysates of HEK293T cells transfected with GFP, GFP-LC3B or GFP-GABARAP; lysis in 10 mM Tris pH 7.5, 150 mM NaCl, 0.5 mM EDTA, 0.5% NP-40, diluted to 0.1% NP-40; 1 h at +4 °C, six washes; eluates immunoblotted; cells with or without PIK-III (2.5 μM, 6 h) or co-expressed …

| Substance | binding [1] | binding [2] | binding [3] |
| --- | --- | --- | --- |
| Histone Deacetylase 3 (Hdac3), endogenous in HEK293T cells (from UniProt O15379 1-428) | binds | binds | binds |
| Nuclear receptor co-repressor 1 (NCoR1), endogenous in HEK293T cells (from UniProt O75376 1-2440) | – | – | binds |
